Results are given in words; binding and its absence hold for the method and conditions named. For part of these data: Binding calls can cover weak binding; strength is not graded here. Tags and fused reporters may be left off the sequences shown. For part of these data: Binding seen in cells or lysates may run through a third protein.

The target of assay [1] is T1, UNC-40::CFP (C. elegans muscle) (C. elegans) (UniProt G5EF96).
T1 sequence: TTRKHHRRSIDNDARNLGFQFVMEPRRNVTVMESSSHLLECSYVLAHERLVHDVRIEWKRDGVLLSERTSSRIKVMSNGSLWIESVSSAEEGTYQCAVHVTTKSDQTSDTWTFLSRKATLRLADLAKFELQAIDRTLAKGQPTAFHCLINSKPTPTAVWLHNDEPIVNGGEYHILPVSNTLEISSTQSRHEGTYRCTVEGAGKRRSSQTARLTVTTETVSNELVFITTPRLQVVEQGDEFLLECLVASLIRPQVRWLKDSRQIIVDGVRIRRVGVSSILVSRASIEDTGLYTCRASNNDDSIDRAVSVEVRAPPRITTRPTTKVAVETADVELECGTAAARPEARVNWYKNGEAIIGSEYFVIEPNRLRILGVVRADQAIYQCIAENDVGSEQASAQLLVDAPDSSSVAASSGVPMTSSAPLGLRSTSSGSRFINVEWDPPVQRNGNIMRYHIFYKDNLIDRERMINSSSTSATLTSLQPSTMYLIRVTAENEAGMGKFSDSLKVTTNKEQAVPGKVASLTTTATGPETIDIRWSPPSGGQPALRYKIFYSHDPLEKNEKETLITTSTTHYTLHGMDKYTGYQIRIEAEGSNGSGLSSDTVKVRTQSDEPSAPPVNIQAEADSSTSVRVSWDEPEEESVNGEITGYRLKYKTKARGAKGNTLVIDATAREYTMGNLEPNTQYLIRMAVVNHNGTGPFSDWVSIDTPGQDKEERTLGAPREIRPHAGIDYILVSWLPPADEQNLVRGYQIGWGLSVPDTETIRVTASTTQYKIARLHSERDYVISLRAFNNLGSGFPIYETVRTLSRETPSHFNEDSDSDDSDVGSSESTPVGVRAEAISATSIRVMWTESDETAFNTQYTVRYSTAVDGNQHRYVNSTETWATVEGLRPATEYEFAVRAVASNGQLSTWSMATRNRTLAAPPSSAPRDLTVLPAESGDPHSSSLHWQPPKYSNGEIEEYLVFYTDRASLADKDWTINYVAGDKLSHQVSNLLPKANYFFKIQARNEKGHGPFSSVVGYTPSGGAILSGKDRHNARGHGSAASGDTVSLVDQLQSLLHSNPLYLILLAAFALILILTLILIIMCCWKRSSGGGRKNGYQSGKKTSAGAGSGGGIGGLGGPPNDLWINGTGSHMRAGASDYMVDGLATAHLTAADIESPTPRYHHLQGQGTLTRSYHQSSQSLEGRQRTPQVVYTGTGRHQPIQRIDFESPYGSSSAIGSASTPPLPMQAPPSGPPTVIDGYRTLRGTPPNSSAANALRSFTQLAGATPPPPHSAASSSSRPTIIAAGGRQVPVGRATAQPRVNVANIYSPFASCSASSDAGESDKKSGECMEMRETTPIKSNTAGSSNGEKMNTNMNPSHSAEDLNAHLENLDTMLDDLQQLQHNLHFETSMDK
Nature of the assay: recruitment of a secreted YFP-tagged ligand to receptor-expressing muscles in living worms (fluorescence microscopy); MADD-4::YFP secreted from neurons (trIs66); CFP-tagged receptor in body wall muscles; CFP-positive muscles examined for MADD-4::YFP; recruitment by EVA-1::CFP also seen without UNC-40.

Assay [2] has as its target T2, EVA-1::MYC::3XFLAG::CFP (C. elegans muscle) (C. elegans) (UniProt Q9XU98).
T2 sequence: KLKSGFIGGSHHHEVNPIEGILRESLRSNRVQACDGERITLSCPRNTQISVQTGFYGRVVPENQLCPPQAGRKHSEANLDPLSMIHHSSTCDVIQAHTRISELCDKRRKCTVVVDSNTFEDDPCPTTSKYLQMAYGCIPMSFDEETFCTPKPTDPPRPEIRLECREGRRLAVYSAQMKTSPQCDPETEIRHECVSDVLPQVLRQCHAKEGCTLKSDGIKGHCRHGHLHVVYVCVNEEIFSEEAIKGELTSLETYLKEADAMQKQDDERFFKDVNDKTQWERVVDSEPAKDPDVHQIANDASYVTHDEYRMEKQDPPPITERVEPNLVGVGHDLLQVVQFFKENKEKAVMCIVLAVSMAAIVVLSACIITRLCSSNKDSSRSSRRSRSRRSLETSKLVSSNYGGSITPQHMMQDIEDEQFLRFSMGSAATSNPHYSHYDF
The assay is described as above.

Assay [3] has as its target 3XFLAG::UNC-5 (no death domain) (HEK293T) (C. elegans). Put plainly: co-IP; FLAG-tagged receptor on transfected HEK293T cells incubated with 10x concentrated conditioned medium holding the HA- and Gaussia luciferase-tagged ligand, 4 hours at 4°C; cells lysed in TNTE buffer (0.5% Triton X-100), anti-FLAG immunoprecipitation, luciferase activity of the washed immunoprecipitate, normalised to receptor level.

Consider “MADD-4B::MYC::3XFLAG::YFP (C. elegans neurons) (ligand)”, for which the binding entry in assay [1] was “no binding”; in assay [2] it was “binds”.

B1: HA::SLT-1::Gaussia luciferase (ligand, UniProt G5EFX6 17-1410)
chain: CPAECVCVDRTVSCVGQQLTEVPQNIPNDTIRLDLQDNEITKIGPNDFSSLMNLKALQLMDNQIVTIHNQSFSSLVFLQKLRLSRNRIRHLPDNVFQNNLKLTHLDLSENDITVVSDAQLQGPEFLEVLNLDKNHIFCLENNVISSWVSLEVLTLNGNRLTTFEEPSNARFRQLDLFNNPWNCDCRLRWMRKWLEKAEGQNKTVCATPLNLQGSSIEILQDKFMTCSGNRKRRYKKTCETAEICPLPCTCTGTTVDCRDSGLTYVPTNLPPSTTEIRLEQNQISSIPSHSFKNLKNLTRLDLSKNIITEIQPKAFLGLHNLHTLVLYGNNITDLKSDTFEGLGSLQLLLLNANQLTCIRRGTFDHVPKLSMLSLYDNDIKSISEVTFQNLTSLSTLHLAKNPLICDCNLQWLAQINLQKNIETSGARCEQPKRLRKKKFATLPPNKFKCKGSESFVSMYADSCFIDSICPTQCDCYGTTVDCNKRGLNTIPTSIPRFATQLLLSGNNISTVDLNSNIHVLENLEVLDLSNNHITFINDKSFEKLSKLRELRLNDNKLHHFSSMVLDEQSNLEILDLSGNNIQCFSSIFFNKATRIREIKVIGNDLLCDCRILPLMSWLRSNSSHSIDIPPCQQFQYSDNESDKQRCAAFPEETCSDDSNLCPPKCSCLDRVVRCSNKNLTSFPSRIPFDTTELYLDANYINEIPAHDLNRLYSLTKLDLSHNRLISLENNTFSNLTRLSTLIISYNKLRCLQPLAFNGLNALRILSLHGNDISFLPQSAFSNLTSITHIAVGSNSLYCDCNMAWFSKWIKSKFIEAGIARCEYPNTVSNQLLLTAQPYQFTCDSKVPTKLATKCDLCLNSPCKNNAICETTSSRKYTCNCTPGFYGVHCENQIDACYGSPCLNNATCKVAQAGRFNCYCNKGFEGDYCEKNIDDCVNSKCENGGKCVDLINSYRCDCPMEYEGKHCEDKLEYCTKKLNPCENNGKCIPINGSYSCMCSPGFTGNNCETNIDDCKNVECQNGGSCVDGILSYDCLCRPGYAGQYCEIPPMMDMEYQKTDACQQSACGQGECVASQNSSDFTCKCHEGFSGPSCDRQMSVGFKNPGAYLALDPLASDGTITMTLRTTSKIGILLYYGDDHFVSAELYDGRVKLVYYIGNFPASHMYSSVKVNDGLPHRISIRTSERKCFLQIDKNPVQIVENSGKSDQLITKGKEMLYIGGLPIEKSQDAKRRFHVKNSESLKGCISSITINEVPINLQQALENVNTEQSCSATVNFCAGIDCGNGKCTNNALSPKGYMCQCDSHFSGEHCDEKRIKCDKQKFRRHHIENECRSVDRIKIAECNGYCGGEQNCCTAVKKKQRKVKMICKNGTTKISTVHIIRQCQCEPTKSVLSEK
On to B1, for which the binding result in assay [3] was “no binding”.

For the origin of these results see publication PMC4133157.
